The experiment concerns the target MTA1 (human (endogenous in human cell lines)) (UniProt Q13330). As to the kind of experiment: proximity ligation; Duolink in situ PLA on cells fixed with 4% paraformaldehyde and permeabilised with 0.2% Triton X-100, primary antibodies to the two endogenous proteins; cells with or without 5 Gy IR followed by 20 min recovery.

Chains of the proteins cited; added tags and fusions are not shown.
UniProt Q13330: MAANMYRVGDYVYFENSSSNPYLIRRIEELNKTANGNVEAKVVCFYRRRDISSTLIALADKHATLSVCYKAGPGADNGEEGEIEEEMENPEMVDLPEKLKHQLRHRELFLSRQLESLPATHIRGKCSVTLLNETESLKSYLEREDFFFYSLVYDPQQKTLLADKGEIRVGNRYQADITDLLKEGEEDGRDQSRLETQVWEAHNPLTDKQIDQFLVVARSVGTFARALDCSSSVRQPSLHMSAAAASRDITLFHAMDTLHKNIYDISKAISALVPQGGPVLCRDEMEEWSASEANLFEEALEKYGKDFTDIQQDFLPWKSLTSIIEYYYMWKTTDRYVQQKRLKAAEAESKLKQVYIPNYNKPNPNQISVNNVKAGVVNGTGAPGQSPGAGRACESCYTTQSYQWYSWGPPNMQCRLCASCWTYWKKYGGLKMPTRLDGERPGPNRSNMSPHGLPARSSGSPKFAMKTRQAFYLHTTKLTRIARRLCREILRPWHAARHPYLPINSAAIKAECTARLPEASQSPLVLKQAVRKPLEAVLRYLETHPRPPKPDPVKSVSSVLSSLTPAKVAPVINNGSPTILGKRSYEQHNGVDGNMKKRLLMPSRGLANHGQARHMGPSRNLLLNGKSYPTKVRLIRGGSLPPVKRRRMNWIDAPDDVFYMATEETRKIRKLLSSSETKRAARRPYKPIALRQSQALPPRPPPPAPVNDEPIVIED
UniProt Q8WXI9: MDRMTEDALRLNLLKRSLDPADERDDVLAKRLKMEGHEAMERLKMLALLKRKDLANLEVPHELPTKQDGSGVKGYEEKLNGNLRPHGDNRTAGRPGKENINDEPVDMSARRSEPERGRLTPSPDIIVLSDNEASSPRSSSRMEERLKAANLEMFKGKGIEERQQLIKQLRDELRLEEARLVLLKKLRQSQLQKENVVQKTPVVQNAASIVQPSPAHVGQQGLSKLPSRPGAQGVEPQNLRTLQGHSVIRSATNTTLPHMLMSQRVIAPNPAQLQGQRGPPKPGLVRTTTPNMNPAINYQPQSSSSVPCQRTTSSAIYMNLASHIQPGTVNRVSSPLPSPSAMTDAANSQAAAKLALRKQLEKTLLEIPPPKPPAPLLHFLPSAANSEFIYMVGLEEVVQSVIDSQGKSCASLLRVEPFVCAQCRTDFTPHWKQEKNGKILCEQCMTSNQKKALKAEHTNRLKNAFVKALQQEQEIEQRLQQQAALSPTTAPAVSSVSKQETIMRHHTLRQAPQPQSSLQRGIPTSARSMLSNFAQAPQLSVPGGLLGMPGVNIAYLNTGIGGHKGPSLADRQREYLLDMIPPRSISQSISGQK

No constants are given. Whether binding was seen depends on the method and setting. In cells and extracts the contact can be indirect. Some results given as binding are weak or reduced against the parent protein; the word gives no strength.

The values below come from paper PMC11183058.

Take GATAD2B (from UniProt Q8WXI9 1-593): the binding entry is given as “binds”.
